{"source": "paper PMC6510822", "about": "“Identification of anticancer OATP2B1 substrates by an in vitro triple-fluorescence-based cytotoxicity screen” (Archives of Toxicology, 2019)", "test_system": "A431 cells", "experiment": "Fluorescence-based cytotoxicity assay, parental A431 eGFP", "details": "Homo sapiens", "note": "Like-named read-outs stand apart in the source and are kept apart here."}
{"smiles": "CC/C(=C(\\c1ccccc1)c1ccc(OCCN(C)C)cc1)c1ccccc1", "note": "[NSC-180973, Tamoxifen]", "values": [{"measurement": "IC50", "setting": "A-431, read-out: IC50 (µM) A431 eGFP, co-culture", "result": 9.76, "unit": "µM"}, {"measurement": "IC50", "setting": "A-431, read-out: IC50 (µM) A431 eGFP, monoculture", "result": 11.3, "unit": "µM"}]}
